# Data as given in PubChem BioAssay AID1259308 (NCATS, 2017).
# Aim: 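Candidate targets for better recombinant protein yield in mammalian cells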 (primary screen)
# System: human HEK293 embryonic kidney cells stably expressing firefly luciferase (HEK-CMV-Luc2-Hygro)
# Reagent: single siRNA against human genes, 0.8 pmol siRNA per well
# Time to read-out: 72 h
# Detection: 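Luciferase light (ONE-Glo) measured on one replicate plate set and viability (CellTiter-Glo) on the other, scaled to a negative control siRNA, with robust z-scores and luciferase per cell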
# Reading the numbers: total luciferase, z-score and total luciferase, % of control: higher = more reporter protein produced; luciferase per cell, z-score: higher = more reporter output per viable cell; viable cells, % of control: higher = more viable cells
# Hit rule: 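Active when the median/MAD z-score for overall luciferase is greater than 3; a gene was taken forward for validation with new siRNAs if at least two of its three siRNAs passed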
# Meaning of the calls: active = raised luciferase; inactive = no rise
# In all, the deposit lists about 59,000 reagents; shown is a random part of them. In the full data, about 1,510 (2.6%) got an active call. 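Calls use total luciferase alone and ignore viability, so some active siRNAs may act by altering cell number.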 Entries without a mark were called inactive. No sequences are given here.
gene,PubChem SID,"total luciferase, z-score","total luciferase, % of control","luciferase per cell, z-score","viable cells, % of control"
LMBRD2 (LMBR1 domain containing 2),SID160754226,-0.765,66.7,-1.14,100
LMBRD2 (LMBR1 domain containing 2),SID160754227,-0.639,69.2,-1,101
LMBRD2 (LMBR1 domain containing 2),SID160754228,-0.399,74,0.456,73.3
CD276 (CD276 molecule),SID160734988,0.729,96.4,0.344,98.4
CD276 (CD276 molecule),SID160750459,1.29,108,0.707,99.8
CD276 (CD276 molecule),SID160750460,0.0401,82.7,-0.3,100
CEBPD (CCAAT enhancer binding protein delta),SID160741648,-0.378,74.4,-0.872,105
CEBPD (CCAAT enhancer binding protein delta),SID160741658,-1.32,55.6,-1.67,96.4
CEBPD (CCAAT enhancer binding protein delta),SID160741669,-0.104,79.8,-0.303,96.6
ZNF615 (zinc finger protein 615),SID160763293,-0.241,77.1,0.0357,85.3
ZNF615 (zinc finger protein 615),SID160763294,0.927,100,0.396,101
ZNF615 (zinc finger protein 615),SID160763295,-0.671,68.5,-0.988,99.3
HSF2 (heat shock transcription factor 2),SID160775360,-0.108,79.7,0.599,76.1
HSF2 (heat shock transcription factor 2),SID160775361,-1.08,60.5,-1.18,92.1
HSF2 (heat shock transcription factor 2),SID160775362,0.266,87.2,-0.272,105

Reformatted: 5 of the entries above
gene | PubChem SID | total luciferase, z-score | total luciferase, % of control | luciferase per cell, z-score | viable cells, % of control
LMBRD2 (LMBR1 domain containing 2) | SID160754228 | -0.399 | 74 | 0.456 | 73.3
CD276 (CD276 molecule) | SID160734988 | 0.729 | 96.4 | 0.344 | 98.4
CD276 (CD276 molecule) | SID160750459 | 1.29 | 108 | 0.707 | 99.8
CD276 (CD276 molecule) | SID160750460 | 0.0401 | 82.7 | -0.3 | 100
CEBPD (CCAAT enhancer binding protein delta) | SID160741648 | -0.378 | 74.4 | -0.872 | 105

Continued.
gene,PubChem SID,"total luciferase, z-score","total luciferase, % of control","luciferase per cell, z-score","viable cells, % of control"
ANO3 (anoctamin 3),SID160747370,-0.968,62.6,-0.632,82.7
ANO3 (anoctamin 3),SID160747371,-1.22,57.6,-0.319,70
ANO3 (anoctamin 3),SID160747373,0.518,92.2,0.0707,101
CT55P2 (CT55 pseudogene 2),SID160770473,-0.556,70.8,1.01,60.7
CT55P2 (CT55 pseudogene 2),SID160770474,0.994,102,1.1,85
CT55P2 (CT55 pseudogene 2),SID160770475,1.97,121,1.43,92.8
JAKMIP1-DT (JAKMIP1 divergent transcript),SID160733000,0.817,98.1,0.749,90
JAKMIP1-DT (JAKMIP1 divergent transcript),SID160763618,1.8,118,1.31,93.1
JAKMIP1-DT (JAKMIP1 divergent transcript),SID160763619,-0.613,69.7,-0.634,92
LRRC10 (leucine rich repeat containing 10),SID160765487,0.358,89,1.29,70.9
LRRC10 (leucine rich repeat containing 10),SID160765488,0.384,89.5,0.149,96.2
LRRC10 (leucine rich repeat containing 10),SID160765490,0.558,93,0.745,85.4
ITGBL1 (integrin subunit beta like 1),SID160722023,-0.335,75.2,1.25,60.5
ITGBL1 (integrin subunit beta like 1),SID160722024,4.61 (active),174,3.43,78.6
ITGBL1 (integrin subunit beta like 1),SID160722025,-1.06,60.9,-1.18,92.8
ANKRD6 (ankyrin repeat domain 6),SID160732595,-1.49,52.2,-1.15,79
ANKRD6 (ankyrin repeat domain 6),SID160732601,7.5 (active),231,4.23,84.8
ANKRD6 (ankyrin repeat domain 6),SID160732609,-0.0506,80.9,1.59,59.5
HNRNPD (heterogeneous nuclear ribonucleoprotein D),SID160775125,-0.244,77,-0.762,105
HNRNPD (heterogeneous nuclear ribonucleoprotein D),SID160775126,0.0975,83.8,-0.585,109
HNRNPD (heterogeneous nuclear ribonucleoprotein D),SID160775127,1.44,111,0.256,115
ZNF621 (zinc finger protein 621),SID160763553,-1.01,61.8,-1.07,91.7
ZNF621 (zinc finger protein 621),SID160763554,0.858,98.9,0.319,102
ZNF621 (zinc finger protein 621),SID160763555,7.21 (active),225,3.71,94.8
